According to PubChem BioAssay AID1347076 (National Center for Advancing Translational Sciences (NCATS), 2019):
Hit rate of the full screen: of about 400,000 compounds, about 13,000 (3.2%) were called active. The shares of active, inactive and inconclusive entries below differ from those in the screen. Calls follow the shape of the dose curve; as a rule, active = well fitted cell-killing curve with a large enough effect; inconclusive = small, poorly fitted or top-dose-only effect, or effect the other way; inactive = flat fitted curve, though single readings scatter. A potency beside an inconclusive call is a rough fit, not a confirmed value.

assay: qHTS assay for MDR1-selective chemotherapeutics: Primary screen using the drug-selected MDR subline cells KB-V1; conditions: KB-V1 MDR cells viability, CellTiter-Glo, 72 h; activity change, negative = cytotoxicity: at 46.1 µM (top of the series); also: nearly all actives have a fitted effect of over 60% in size
In short: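 KB-V1 cells (P-gp-expressing MDR subline of KB-3-1) in phenol-red-free DMEM with 10% FBS were exposed to library compounds over a concentration series for 72 h at 37 degrees C. Viability read by CellTiter-Glo luminescence; concentration-effect curves fitted after normalization.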
% is scaled to controls: 0 for no effect and ±100 for the full control effect; potency is read from the fitted curve at half-maximal effect.

Structure (SMILES) | activity change, negative = cytotoxicity | Potency
CCc1nnc(NC(=O)CSc2nnc(C3CC3)n2C)s1 | inactive: 4.63% | –
CCCn1c(N)c(C(=O)CSc2nnc(C3CC3)n2Cc2ccccc2)c(=O)n(C)c1=O | inactive: 0% | –
COc1ccc(C(=O)/C=C2/c3ccccc3CC(C)(C)N2C)cc1 | inactive: -71.3% | –
CCOC(=O)N1CCN(C(=O)CN(C)S(=O)(=O)c2ccc3c(c2)c(=O)n(C)c(=O)n3C)CC1 | – | inconclusive: 29.1 µM [rising, single point]
CN(C)S(=O)(=O)c1ccc(NC(=O)CCCNC(=O)c2ccc(Cl)cc2)cc1 | inactive: 32.5% | –
CCOC(=O)c1cnc2ccc(C(=O)OC)cc2c1Nc1cccc(C(=O)O)c1 | inactive: -6.69% | –
CCCS(=O)(=O)c1c(S(=O)(=O)CCC)c2c3ccccc3ccn2c1C(=O)OC | – | inconclusive: 20.6 µM [cytotoxic, single point]
Cc1ccc(C=C2C(Cl)=C(Cl)C(Cl)=C2Cl)cc1 | – | inconclusive: 11.6 µM [cytotoxic, partial curve, poor fit]
CC(C(=O)Nc1ccc2c(c1)OCCO2)N(C)Cc1c(F)cccc1Cl (centres undefined) | – | inconclusive: 20.6 µM [cytotoxic, single point]
Cc1noc(C)c1COC(=O)c1cccc(S(=O)(=O)N2c3ccccc3CC2C)c1 (centres undefined) | – | inconclusive: 29.1 µM [cytotoxic, single point]
CC(NC(=O)Nc1ccc(F)cc1)c1ccc2c(c1)OCO2 (centres undefined) | – | inconclusive: 14.6 µM [rising, partial curve]
CCOC(=O)c1c(NC(=O)c2cccs2)sc(C)c1CC | inactive: -3.58% | –
CCC(C)Cn1cnc2c(Sc3c([N+](=O)[O-])ncn3C)nc(N)nc21 (centres undefined) | – | inconclusive: 20.6 µM [rising, single point]
COc1ccc(CCC(=O)NCCc2csc(-c3ccc(C(F)(F)F)cc3)n2)cc1 | inactive: -53.6% | –
Clc1cccc(Cl)c1/C=N/Nc1c(Cl)cncc1Cl | – | inconclusive: 13 µM [cytotoxic, partial curve, poor fit]
CCOc1cc(N2CCOCC2)c(OCC)cc1NC(=O)c1ccc(OCc2c(C)noc2C)c(OC)c1 | – | inconclusive: 29.1 µM [cytotoxic, single point]
CC1Cc2cc(S(=O)(=O)NCCc3ccccc3)ccc2N1C(=O)C1CCC1 (centres undefined) | inactive: -10.1% | –
CCCc1nnc(NC(=O)c2cc(=O)c3cc(Cl)ccc3o2)s1 | – | inconclusive: 29.1 µM [rising, single point]
OCC[C@H]1C[C@@H](O)[C@H](O)[C@]2(OCc3ccccc32)O1 | – | inconclusive: 0.411 µM [rising, partial curve, poor fit]
CS(=O)(=O)N1CCc2cc(C(=O)N3CCN(c4ccccc4)CC3)ccc21 | – | inconclusive: 29.1 µM [cytotoxic, single point]
CCCOc1ccc(-c2nc(=S)[nH][nH]2)cc1 | inconclusive: -32.8% | –
CCOc1ccc(NC(=O)c2[nH]c(C)c(C(C)=O)c2C)cc1 | – | inconclusive: 7.31 µM [cytotoxic, partial curve, poor fit]

Structure (SMILES) | activity change, negative = cytotoxicity | Potency
CCC(C)[C@H](NC(=O)Nc1ccc(C(C)=O)cc1)C(=O)OC (some centres undefined) | – | inconclusive: 13 µM [rising, partial curve, poor fit]
O=S(=O)(Nc1ccc(N2CCOCC2)cc1)c1cc(Cl)ccc1Cl | – | inconclusive: 16.4 µM [cytotoxic, single point]
Cc1cc(=O)[nH]c(NN=C2C3CC4CC(C3)CC2C4)n1 | – | inconclusive: 23.1 µM [rising, single point]
CC(=O)N1CC(=O)N=C1SCC(=O)Nc1nc(C)c(-c2ccccc2)s1 | – | active: 13 µM
CCOC(=O)c1c(N)c2cc([N+](=O)[O-])cnc2n1C | – | inconclusive: 3.26 µM [cytotoxic, full curve, poor fit]
COc1cccc(-n2cnnc2SCC(=O)NC2CC2)c1 | – | inconclusive: 11.6 µM [rising, partial curve, poor fit]
Cc1ccc2c(c1)c(N1CCCC1=O)c(C(=O)Nc1ccc(F)cc1F)n2C | – | inconclusive: 7.31 µM [cytotoxic, partial curve]
O=C(c1cc(NC(=O)C23CC4CC(CC(C4)C2)C3)cc(NC(=O)C23CC4CC(CC(C4)C2)C3)c1)N1CCCCC1 | – | inconclusive: 8.2 µM [cytotoxic, partial curve]
Cc1ccc(S(=O)(=O)N2CCN(c3nc(-c4cccs4)nc4ncccc34)CC2)cc1 | inactive: 0% | –
CC1=C(C(=O)N(C)C)CC(CC(=O)NC2CCCCC2)C(=O)N1Cc1ccc(F)cc1 (centres undefined) | – | inconclusive: 29.1 µM [cytotoxic, single point]
O=C(C1CCCN(S(=O)(=O)c2cccc3nsnc23)C1)N1CCN(c2ccccc2Cl)CC1 (centres undefined) | inactive: -4.52% | –
Cc1nonc1OCC(C)(COc1nonc1C)NC(=O)c1ccc(Cl)cc1 | – | active: 4.11 µM
CCC(CC)C(=O)c1c[nH]c(C(=O)NCCc2ccccn2)c1 | inactive: 4.35% | –
O=C(CCCCCn1c(=O)[nH]c2ccccc2c1=O)NCc1ccccc1 | inactive: 15.8% | –
CCOC(=O)c1cc(S(=O)(=O)N2CCN(c3ccc(C)cc3C)CC2)[nH]n1 | inactive: 12.6% | –
O=[N+]([O-])c1ccc(/C=C/c2ccc3ccccc3n2)cc1 | inactive: -19.6% | –
O=C(Nc1ccc(Cl)c(Cl)c1)c1ccccc1NC(=O)C1CC=CCC1C(=O)O (centres undefined) | – | inconclusive: 14.6 µM [rising, partial curve, poor fit]
COc1ccc(NC(=O)[C@H](NC(=O)[C@@H]2Cc3ccccc3CN2)c2ccccc2)cc1 | – | inconclusive: 0.0073 µM [cytotoxic, full curve]
COC(=O)[C@]1(C)N[C@H](CN(C)C(=O)c2ccccc2)[C@@H]2C(=O)N(C)C(=O)[C@@H]21 | inconclusive: 33% | –
CCN1C/C(=C\c2cc(OC)c(OC)c(OC)c2)C2=NN(c3ccccc3)C(c3cc(OC)c(OC)c(OC)c3)C2C1 (centres undefined) | – | inconclusive: 7.31 µM [cytotoxic, partial curve, poor fit]
CCCCNC(=O)c1ccccc1NC(=O)c1ccccc1N(C)S(C)(=O)=O | – | active: 23.1 µM
Cc1nc2scc(C)n2c(=O)c1S(=O)(=O)N1CCN(c2cccc(C(F)(F)F)c2)CC1 | – | inconclusive: 29.1 µM [cytotoxic, single point]

Whole records, quoted from the list.
`CCOC(=O)c1cc(S(=O)(=O)N2CCN(c3ccc(C)cc3C)CC2)[nH]n1` is listed with activity change, negative = cytotoxicity: inactive: 12.6%
`O=C(Nc1ccc(Cl)c(Cl)c1)c1ccccc1NC(=O)C1CC=CCC1C(=O)O` (centres undefined) is listed with Potency: inconclusive: 14.6 µM [rising, partial curve, poor fit]
